Experimental data as given in PMC4706845.

Molecular target: APP intracellular domain (AICD), full length AICD (human (cDNA from HeLa cells))
Test: proteo-liposome recruitment; cytoplasmic tails covalently coupled to liposomes, incubated with pig brain cytosol; proteo-liposomes separated on a sucrose cushion and pelleted at 4 °C; SDS-PAGE and western blot for Vac14 and PIKfyve; cysteine liposomes as negative control; only the target purified

B1: Vac14 from pig brain cytosol (protein, UniProt F1S3E8 1-783)
chain: MNPEKDFAPLTPNIVRALNDKLYEKRKVAALEIEKLVREFVAQNNTVQIKHVIQTLSQEFALSQHPHSRKGGLIGLAACSIALGKDSGLYLKELIEPVLTCFNDADSRLRYYACEALYNIVKVARGAVLPHFNVLFDGLSKLAADPDPNVKSGSELLDRLLKDIVTESNKFDLVGFIPLLRERIYSNNQYARQFIISWILVLESVPDINLLDYLPEILDGLFQILGDNGKEIRKMCEVVLGEFLKEIKKNPSSVKFAEMANILVIHCQTTDDLIQLTAMCWMREFIQLAGRVMLPYSSGILTAVLPCLAYDDRKKSIKEVANVCNQSLMKLVTPEDDEPDEPKPVVQKQAEAKPEDSSAKQEGTASGGPDGSCDSSFGGSIGVFSPASTERAPVTLHLDGIVQVLNCHLSDMAIGMMTRIAVLKWLYHLYIKTPRKMFRHTDSLFPILLQTLSDESDEVILKDLEVLAEIASSPAGQTDDAGPPDGPDLRVGHSELQVPTPGRASLLSTPGAKGLECSPSTPTMNSYFYKFMINLLKRFSSERKLLEVRGAFIIRQLCLLLNAENIFHSMADILLREEDLKFASTMVHTLNTILLTSTELFQLRNQLKDLRTPESRNLFCCLYRSWCHNPVTTVSLCFLTQNYRHAYDLIQKFGDLEVTVDFLTEVDKLVQLIECPIFTYLRLQLLDVKNNPYLIKALYGLLMLLPQSSAFQLLSHRLQCVPNPELLQTEDGLKAAPRSQNADSLSIDYAELLQHFERVQKKHLEVRHQRSGRGDHLDRRVVL
binding: binds

These are yes or no findings as the source states them, for the method shown. Binding calls can cover weak binding; strength is not graded here.
